# Reference: PubChem BioAssay AID1117319 (Southern Research Institute, 2015)
# Amino acid sequences for entries named in this document (tags omitted). A change or cut given only in a name is not applied to a line headed by its entry.
# UniProt P69720: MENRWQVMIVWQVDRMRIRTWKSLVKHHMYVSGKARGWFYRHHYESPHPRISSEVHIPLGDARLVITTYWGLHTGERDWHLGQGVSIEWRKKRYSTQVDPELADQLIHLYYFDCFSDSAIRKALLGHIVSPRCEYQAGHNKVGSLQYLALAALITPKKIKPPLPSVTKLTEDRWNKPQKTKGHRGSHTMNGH
# UniProt P69721: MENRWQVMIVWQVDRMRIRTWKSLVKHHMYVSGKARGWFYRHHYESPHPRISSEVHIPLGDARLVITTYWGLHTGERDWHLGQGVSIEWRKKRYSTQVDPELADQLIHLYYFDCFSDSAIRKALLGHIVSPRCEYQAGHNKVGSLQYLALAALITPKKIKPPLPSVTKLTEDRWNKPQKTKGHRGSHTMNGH
# UniProt P69722: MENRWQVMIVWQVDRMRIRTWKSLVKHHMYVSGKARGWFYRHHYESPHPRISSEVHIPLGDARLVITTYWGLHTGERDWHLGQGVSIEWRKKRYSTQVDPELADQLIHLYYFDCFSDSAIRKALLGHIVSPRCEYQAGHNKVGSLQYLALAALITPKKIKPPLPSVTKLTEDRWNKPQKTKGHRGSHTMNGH
# UniProt P69723: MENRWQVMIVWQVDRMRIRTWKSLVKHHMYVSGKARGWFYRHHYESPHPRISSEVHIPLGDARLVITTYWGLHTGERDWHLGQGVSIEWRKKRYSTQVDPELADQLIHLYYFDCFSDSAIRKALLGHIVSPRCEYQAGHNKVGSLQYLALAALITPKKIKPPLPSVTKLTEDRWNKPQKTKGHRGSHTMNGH
# UniProt Q9HC16: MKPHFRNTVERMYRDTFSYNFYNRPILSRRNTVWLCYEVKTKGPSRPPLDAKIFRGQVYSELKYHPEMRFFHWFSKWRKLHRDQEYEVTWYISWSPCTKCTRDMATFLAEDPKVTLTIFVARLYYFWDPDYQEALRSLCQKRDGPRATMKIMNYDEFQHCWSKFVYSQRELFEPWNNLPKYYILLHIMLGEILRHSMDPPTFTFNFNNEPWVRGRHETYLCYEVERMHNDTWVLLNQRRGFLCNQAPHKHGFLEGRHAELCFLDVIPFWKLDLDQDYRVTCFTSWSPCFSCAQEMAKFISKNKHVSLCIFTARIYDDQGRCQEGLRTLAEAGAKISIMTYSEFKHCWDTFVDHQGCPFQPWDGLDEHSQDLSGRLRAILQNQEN
# Several values for one entry are separate records, joined by “and”; a condition that tells them apart may be missing. Equal values may be shown once. Among all 260,000 compounds or so, about 1,500 (0.58%) were called active. Inconclusive means that the source gave no clear call. Such entries were picked first, then a sample of the others.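 The calls were made as follows: active = inhibition above a set limit at one or more doses, reproduced on every date tested; inconclusive = results disagree between test dates, or hit never tested in dose response; inactive = the rest.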
# Target: Virion infectivity factor (Human immunodeficiency virus type 1 group M subtype B (isolate BH10)) + Virion infectivity factor (Human immunodeficiency virus type 1 group M subtype B (isolate BRU/LAI)) + Virion infectivity factor (Human immunodeficiency virus type 1 group M subtype B (isolate PCV12)) + Virion infectivity factor (Human immunodeficiency virus type 1 group M subtype B (isolate HXB2)) + DNA dC->dU-editing enzyme APOBEC-3G (Homo sapiens) (UniProt P69720+P69721+P69722+P69723+Q9HC16)
# Test: inhibitors of Vif binding to APOBEC3G peptide, primary screen, biochemical, TR-FRET, GST-Vif 1-94, biotin-A3G peptide, dose response retest (AID 1117319);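 also: Vif residues 1-94 fused to GST binding biotinylated APOBEC3G peptide 110-148; 0% = full assay without inhibitor and 100% = GST in place of GST-Vif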
# Settings: stronger effect = higher value
row,Structure (SMILES),inhibition
1,C/C(=N\Nc1nc(N)cc(Cl)n1)c1cccc([N+](=O)[O-])c1,inconclusive: 44.7%
2,Cc1ccc2nc(-c3ccccn3)oc2c1,inconclusive: 44.8%
3,COc1ccc(N2CCN(C(=O)c3ccc(NS(=O)(=O)c4ccccc4)cc3)CC2)cc1,inconclusive: 33.5%
4,O=C(/C=C/c1ccc(S(=O)(=O)N2CCOCC2)cc1)N1CCN(c2ccc(F)cc2)CC1,inconclusive: 38.1%
5,O=C1C(Cl)=C(NCCc2ccccc2)C(=O)c2ccccc21,inactive: 14.2%
6,Cc1occc1-c1nnc(SCC(=O)N2CCN(c3ccc(F)cc3)CC2)n1C,inactive: 8.11%
7,O=C(COC(=O)C1(c2ccc(F)cc2)CCCC1)NCc1ccco1,inconclusive: 42.6%
8,O=C(NCCCn1ccnc1)c1cn(-c2ccccc2)nc1-c1ccc(F)cc1,inconclusive: 62.9%
9,O=C(O)CCC(=O)Nc1ccc(NC(=O)c2ccc(Cl)cc2Cl)c(Cl)c1,inconclusive: 33.5%
10,COc1ccc2nc(NC(=O)C3CCN(S(=O)(=O)c4cccs4)CC3)sc2c1,inconclusive: 56%
11,Nc1ccc(S(N)(=O)=O)cc1N,inconclusive: 51.2%
12,Cc1[nH]c2c(C)cccc2c1CCNS(=O)(=O)c1cccc([N+](=O)[O-])c1,inconclusive: 47.2%
13,O/N=C1\CCCC\C1=C/c1ccccc1,inactive: 5.14%
14,CCc1noc(C)c1C(=O)Nc1ccc(F)c(F)c1,inactive: -2.68%
15,COc1ccc(C(=O)C[n+]2ccc(-c3nnc4n3CCCCC4)cc2)cc1,inconclusive: 33.1%
16,COc1ccc(-c2cc(=O)n(-c3nc4ccccc4[nH]3)[nH]2)cc1,inactive: 10.5%
17,COc1ccc(NC(=S)Nc2ccc3nccnc3c2)cc1,inconclusive: 59.4%
18,CC(C)/C=C/CN1CCC(Oc2ccc(C(=O)N3CCCC3)cc2)CC1,inconclusive: 40%
19,C=CCn1c(=O)c2ccccc2n2c(SCC(=O)c3ccccc3)nnc12,inconclusive: 45.7%
20,CN(C)c1ccc(C(CC(=O)O)NC(=O)c2ccc(Cl)cc2)cc1 (stereo not given),inconclusive: 46.7%
21,O=C1CN(Cc2nc3cc(Cl)ccc3c(=O)[nH]2)CCN1,inconclusive: 41.9%
22,CN1C(C(=O)Nc2ccccn2)=C(O)c2sccc2S1(=O)=O,inconclusive: 39.6%

row,Structure (SMILES),inhibition
1,Cc1ccc2cc3cc(C(=O)NCCCN4CCCC4)oc3nc2c1,inactive: -1.36%
2,O=C(N/N=C/c1ccc(O)cc1O)/C(=C/c1ccccc1)CCO,inconclusive: 40.5%
3,COc1ccc(CS(=O)(=O)c2nc(C)cc(C)c2S(C)(=O)=O)cc1,inconclusive: 56.7%
4,CCN(C(=O)CSc1nncn1-c1ccccc1)c1c(N)n(Cc2ccccc2)c(=O)[nH]c1=O,inconclusive: 37.8%
5,O=S(=O)(Nc1ccccc1)c1ccc(-c2cnc(C3CC3)o2)cc1,inactive: 5.89%
6,COC(=O)[C@@]1(Cc2ccccc2)[C@H]2c3cc(C(=O)N4CCCC4)n(Cc4ccsc4Br)c3C[C@H]2CN1C(=O)c1ccccc1,inconclusive: 34.8%
7,Cc1ccc(NC(=O)CN(C)C(=O)COC(=O)CCS(=O)(=O)c2ccc(C)cc2)cc1,inconclusive: 48.2%
8,CCOc1ccc2[nH]c(=O)c(C(c3nnnn3C3CCCCC3)N3CCN(C)CC3)cc2c1 (stereo not given),inconclusive: 35.8%
9,N#CC(=C=[N-])c1nc2ccccc2nc1-[n+]1cccc(NC(=O)c2ccccc2)c1,inconclusive: 33.2% and inconclusive: 52.1%
10,O=C(NCc1ccco1)C12CN(Cc3ccccc3)CC1C(c1ccc([N+](=O)[O-])cc1)=NO2 (stereo not given),inconclusive: 37.5%
11,O=C(OCc1nc2ccccc2[n+]([O-])c1C(=O)c1ccccc1)c1ccco1,inconclusive: 37.5%
12,O=C(NCc1ccccc1Cl)NCc1ccccc1Cl,inconclusive: 42.8%
13,Cc1cccc(NC(=O)c2sc3nc(-c4ccc(F)cc4)cn3c2C)n1,inactive: -26.2%
14,Cn1cnnc1Sc1ccc(C(=O)OCC(=O)Nc2ccccc2)cc1[N+](=O)[O-],inconclusive: 53.7%
15,CC(OC(=O)c1nsc(Cl)c1Cl)C(=O)NCc1ccc2c(c1)OCO2 (stereo not given),inconclusive: 54.1%
16,Cn1cnc(S(=O)(=O)N2CCc3ccccc32)c1,inactive: 3.79%
17,CCN(CC)c1ccc(C(=O)N2CCN(Cc3ccccc3)CC2)cc1,inconclusive: 34.9%
18,CCCNC(=O)c1ccc(CN2CCOCC2)cc1,inconclusive: 40%
19,CCN(C(=O)C1CCCCC1)c1nnc(-c2cccnc2)s1,inactive: -11.9%
20,CCCCN(C(=O)CSc1nnnn1C)c1c(N)n(Cc2ccccc2)c(=O)[nH]c1=O,inconclusive: 51.4%
21,CO[C@H]1C=CO[C@@]2(C)Oc3c(C)c(O)c4c(O)c(c(C=NN5CCN(C6CCCC6)CC5)c(O)c4c3C2=O)NC(=O)C(C)=CC=C[C@H](C)[C@H](O)[C@@H](C)[C@@H](O)[C@@H](C)[C@H](OC(C)=O)[C@@H]1C,inactive: -8.62%
22,CCCCN1C(=O)C(=O)N(CC(=O)c2ccc[nH]2)C1=O,inactive: 5.74%

# Sorted by SMILES length (falling): 3 of the compounds above.
row,Structure (SMILES),inhibition
21,CO[C@H]1C=CO[C@@]2(C)Oc3c(C)c(O)c4c(O)c(c(C=NN5CCN(C6CCCC6)CC5)c(O)c4c3C2=O)NC(=O)C(C)=CC=C[C@H](C)[C@H](O)[C@@H](C)[C@@H](O)[C@@H](C)[C@H](OC(C)=O)[C@@H]1C,inactive: -8.62%
4,CCN(C(=O)CSc1nncn1-c1ccccc1)c1c(N)n(Cc2ccccc2)c(=O)[nH]c1=O,inconclusive: 37.8%
19,CCN(C(=O)C1CCCCC1)c1nnc(-c2cccnc2)s1,inactive: -11.9%

# Following part:

row,Structure (SMILES),inhibition
1,Cc1ccc(CN2C(=O)C3CCCN3c3ccc(S(=O)(=O)N4CCOCC4)cc32)cc1 (stereo not given),inconclusive: 42.8%
2,O=C(Nc1cccc(F)c1)N1CCC(n2c(=O)[nH]c3ccccc32)CC1,inconclusive: 36%
3,Cc1nn(-c2ccccc2)c(Cl)c1/C=C1\SC(=S)N(C)C1=O,inconclusive: 38.6%
4,CCOC(=O)C1=C(C)N(c2ccc(OCC)cc2)C(=O)/C1=C\c1ccco1,inactive: 10.7%
5,CCO/C(C)=C1/SC(=S)NC1=O,inconclusive: 49.7%
6,Cn1cc(CN2CCCC(C(=O)Nc3cccc(-c4cc5ccccc5[nH]4)c3)C2)cn1 (stereo not given),inconclusive: 52.3%
7,COc1ccc(Br)cc1/C=N/NC(=O)c1cccnc1,inactive: 4.05%
8,CSc1nccc(Nc2ccccc2)c1C#N,inconclusive: 37.7%
9,Cc1nnc2ccc(-c3cccc(NC(=O)Cc4cccs4)c3)nn12,inconclusive: 51.5%
10,Cc1cc(C)c2c(c1)cc(C)c1nnc(SCC(=O)Nc3ccc(S(=O)(=O)N4CCCCC4)cc3)n12,inconclusive: 44.9%
11,O=C(CN(c1ccc(F)cc1)S(=O)(=O)c1ccc2c(c1)OCCO2)Nc1ccccc1,inconclusive: 42.2%
12,CSc1ncccc1C(=O)OCC(=O)Nc1ccc(S(=O)(=O)N2CCCC2)cc1,inconclusive: 41.4%
13,CC(=O)N(C(C)=O)c1ccc2nc(C)[nH]c(=O)c2c1,inconclusive: 45.6%
14,C=CCn1c(COc2ccc(F)cc2)nnc1SCC(=O)Nc1cccc(S(N)(=O)=O)c1,inconclusive: 46.7%
15,COc1ccc(C2=CC3=C(Br)C(=O)C(C)(O)C(=O)C3=CO2)cc1 (stereo not given),inconclusive: 37.7%
16,CCc1ccc(NC(=O)c2cc(-c3cccs3)on2)cc1,inconclusive: 53.8%
17,O=C(COC(=O)c1cc(-c2cccnc2)nc2ccccc12)Nc1ccc(F)cc1F,inactive: -4.09%
18,O=C1CCC/C(=N/NC(=O)C2CCN(S(=O)(=O)c3cccs3)CC2)C1,inconclusive: 39.5%
19,COc1ccc2c(c1)C1NC(=S)N[C@@](C)(O2)C1C(=O)Nc1ccccc1 (stereo not given in full),inconclusive: 35.4%
20,COc1ccc(CNCCC(c2ccc(F)cc2)c2ccc(OC(C)C)cc2)cc1OC (stereo not given),inconclusive: 42.4%
21,NC[C@@]12CCCC1C1CCC2C1 (stereo not given in full),inconclusive: 54.3%
22,CN(C)C(CNC(=O)c1ccc2ccccc2c1)c1ccco1 (stereo not given),inconclusive: 35.9%

row,Structure (SMILES),inhibition
1,CC(C)(C)c1ccc(C(=O)c2c[nH]c(C(=O)NCCc3ccccn3)c2)cc1,inconclusive: 45%
2,O=C(COc1ccccc1[N+](=O)[O-])OCC(=O)N1CCC(Cc2ccccc2)CC1,inconclusive: 40.1%
3,CCCCC[n+]1ccn(C2=C([O-])c3ccccc3C(=O)/C2=N\S(=O)(=O)c2ccc(Cl)cc2)c1,inconclusive: 57.5%
4,CCOc1ccccc1-c1cc(-c2ccccc2)nc2c1c(=O)n(C)c(=O)n2C,inactive: -7.81%
5,COc1ccc(O)c(CN2CCN(C/C=C/c3ccccc3)CC2)c1,inconclusive: 52.2%
6,CCn1c(SCC(=O)OC)nnc1-c1ccc(C)cc1,inconclusive: 51.1%
7,Cc1ccccc1-n1c(=O)/c(=C\c2ccco2)s/c1=C(/C#N)C(=O)Nc1ccccc1,inconclusive: 56.4%
8,C=C(C)c1cccc(C(C)(C)NC(=O)N2CCN(C)CC2)c1,inconclusive: 61.5%
9,COC(=O)CCSc1cc(NCCOC(C)=O)c([N+](=O)[O-])c2nonc12,inconclusive: 39.1%
10,CCn1c(C(=O)O)c(S(=O)(=O)c2ccc(Cl)cc2)c2ccccc21,inactive: -1.5%
11,Cc1ccc(C)c(N(C(=O)Cn2nnc3ccccc32)C(C(=O)NCc2ccco2)c2ccncc2)c1 (stereo not given),inactive: -2.7%
12,CCCCCCOc1ccc(N2C(=O)CC(NCc3ccc(S(N)(=O)=O)cc3)C2=O)cc1 (stereo not given),inconclusive: 36%
13,CC(=O)Oc1cccc(N2C(=O)CC(Nc3ccc(N4CCOCC4)cc3)C2=O)c1 (stereo not given),inconclusive: 85.2%
14,Cc1c(F)cccc1NC(=O)CCC(=O)O,inconclusive: 53%
15,N/C(Cc1ccc(Cl)cc1Cl)=N\OC(=O)Cc1cccs1,inconclusive: 35%
16,Cc1[nH]c(=O)c(C#N)cc1-c1ccccc1,inconclusive: 39.3%
17,CCSc1nnc(NC(=O)Cc2cccc(OC)c2)s1,inconclusive: 33.4%
18,Cn1cnnc1SCC(=O)Nc1ccccc1Sc1ccccc1,inconclusive: 35.6%
19,COc1ccc(/C=C/C(=O)OCCNC(=O)c2ccncc2)cc1OC,inconclusive: 39.5%

# 2 compounds picked at random from those above:
row,Structure (SMILES),inhibition
6,CCn1c(SCC(=O)OC)nnc1-c1ccc(C)cc1,inconclusive: 51.1%
19,COc1ccc(/C=C/C(=O)OCCNC(=O)c2ccncc2)cc1OC,inconclusive: 39.5%
